From PubChem BioAssay AID1487 (National Center for Advancing Translational Sciences (NCATS), 2009) come the findings set out here.

This assay can be described thus: qHTS Assay for Modulators of Lamin A Splicing. The conditions noted are these: HeLa LMNA splicing GFP/RFP minigene ratio, 48 h. In short, it runs like this: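 Read-out is the ratio of GFP to DsRed2 object intensity, acquired by 488 nm laser-scanning cytometry on HeLa lamin A-EGFP minigene reporter cells. Compound incubation 48 hrs at 37 °C in Opti-MEM with 2% FBS; DMSO 0.5% final.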
On the technique in general: Quantitative high-throughput screening tests each substance at several concentrations.

Where [1] appears, read: measured here: RFP viability control channel.
Where [2] appears, read: measured here: GFP splicing reporter channel.

This is one part of the list. These are further read-outs of the screen, such as a control signal, another cell line or another target. No call is given for them. Most of these compounds were active or inconclusive in the main read-out, so they are no random draw. Words in brackets tell the shape of the fitted curve; partial curves, single points and poor fits give uncertain potencies.

Broadly, the AC50 is the midpoint of the concentration-response curve, whichever way the signal moves. Take `CCN(CC)S(=O)(=O)c1ccc2nc(NC(=O)c3cccs3)sc2c1`: the AC50 under setting [1] is 20 µM [rising, single point]. In the case of `Cc1ccc2[nH]c3c(N4CCOCC4)ncnc3c2c1`, the AC50 under setting [1] was 31.6 µM [rising, single point]. For the molecule `CCC(=O)Nc1cccc(NC(=S)NC(=O)Cc2ccccc2)c1`, the AC50 under setting [1] was 11.2 µM [rising, single point]. On the same count and under the same terms, the result for `C=CS(=O)c1sc(Cl)c(N2CCOCC2)c1[N+](=O)[O-]` (stereo not given) reads 3.16 µM [falling, single point]; that for `COc1ccc2nc(NC(=O)CSc3nc(C)cc(C)n3)sc2c1`, 15.8 µM [rising, single point]. As to `CC(=O)c1ccc(NC(=O)c2sc(-n3nc(C)c(CCC(C)C)c3C)nc2C)cc1`, the AC50 under setting [1] is 35.5 µM [falling, single point]. On to `CCn1nc(C)c(NC(=O)CCCSc2nc(-c3ccco3)cc(C(F)(F)F)n2)c1C`, for which the AC50 under setting [1] is 14.1 µM [rising, partial curve].

As to `Cn1c(=O)c2c(nc(N3CCCCC3)n2CCNC2=NCCC2)n(C)c1=O`, the AC50 under setting [2] is 35.5 µM [falling, single point] and the AC50 under setting [1] was 35.5 µM [falling, single point]. As for `CCOc1ccccc1NC(=O)CSc1nc2ccccc2nc1Cc1ccc(C)cc1`, the AC50 under setting [1] is 0.562 µM [rising, partial curve, poor fit]. Regarding `O=C1[C@@H]2C(Cc3ccc(O)cc3)NC3(C(=O)Nc4ccc(F)cc43)[C@@H]2C(=O)N1c1ccccc1` (stereo not given in full), under setting [1], the AC50 was 12.6 µM [rising, single point].

Consider `Cc1ccc(SCc2c(C#N)c3ccccc3n2C)cc1`, for which, under setting [1], the AC50 was 15.8 µM [rising, partial curve]. For the molecule `COCCn1c(SC(C(=O)Nc2cc(C)ccc2OC)c2ccccc2)nnc1-c1ccc(Cl)cc1` (stereo not given), the AC50 was 11.2 µM [rising, partial curve] under setting [2] and 14.1 µM [rising, single point] under setting [1].

As to `COc1cc(OC)c(NC(=O)Cc2c(C(=O)O)c(C)cn2C)cc1Cl`, the AC50 runs as follows: under setting [2], 0.0251 µM [rising, full curve, poor fit]; under setting [1], 0.01 µM [rising, full curve, poor fit]. Regarding `CN(C)/C=C/C(=O)c1ccc(Oc2ncccn2)cc1`, the AC50 by setting is: under setting [2], 0.794 µM [falling, single point]; under setting [1], 35.5 µM [falling, single point]. For the molecule `COc1ccc(C(=O)c2sc(NC(C)C)nc2N)cc1OC`, the AC50 was 15.8 µM [falling, partial curve] under setting [2] and 22.4 µM [falling, single point] under setting [1]. For `CC(C)Cn1c(-c2ccncc2)n[nH]c1=S`, the AC50 under setting [1] is 0.708 µM [falling, full curve, poor fit]. Turning to `O=C(NCc1ccncc1)c1nc(-c2cccs2)no1`, the AC50 under setting [2] is 3.98 µM [rising, partial curve, poor fit]. For `CCNc1nc(NCC)nc(Oc2ccc(OCc3ccccc3)nn2)n1`, the AC50 runs as follows: under setting [2], 17.8 µM [falling, single point]; under setting [1], 8.91 µM [falling, partial curve].

Regarding `CC(C)NC1=C(Cl)C(=O)c2ccccc2C1=O`, the AC50 is 35.5 µM [falling, single point] under setting [2] and 6.31 µM [falling, partial curve] under setting [1].

Regarding `O=C(/C=C/c1ccc(F)cc1)NCc1ccco1`, under setting [1], the AC50 is 8.91 µM [falling, partial curve, poor fit]. Take `CCn1c(O)c(N=NC(=O)c2cccc(S(=O)(=O)N3CCCCC3)c2)c2ccccc21`: the AC50 under setting [1] was 12.6 µM [rising, single point]. As to `CCOC(=O)CC(=O)CSc1nc2c(cc1C#N)CCC2`, under setting [1], the AC50 is 14.1 µM [falling, single point]. For the molecule `Cc1nc2ccn(Cc3cccnc3)c(=O)c2cc1C(=O)NCc1ccccc1`, the AC50 under setting [1] was 10 µM [rising, single point]. Regarding `O=C(CSc1ncccn1)Nc1ncc(C(F)(F)F)cc1Cl`, under setting [1], the AC50 was 35.5 µM [falling, single point]. Regarding `Clc1ccc(N2COC3c4cccc5cccc(c45)C32)cc1` (stereo not given), the AC50 under setting [1] was 20 µM [rising, single point]. Turning to `COc1cc(OC)c(C(=O)NCCCN2CCOCC2)cc1OC`, under setting [2], the AC50 is 11.2 µM [falling, partial curve, poor fit]. Take `CCCNC(=O)C/C(C)=N/NC(=O)C(=O)Nc1ccccn1`: under setting [2], the AC50 was 0.0282 µM [falling, full curve, poor fit]. As for `O=C(/C=C/c1ccco1)Nc1ccc(Oc2ccccc2)cc1`, the AC50 runs as follows: under setting [2], 11.2 µM [falling, partial curve, poor fit]; under setting [1], 10 µM [falling, partial curve]. Take `Nc1ncnc2nc(SCCOc3ccc(Cl)cc3)[nH]c12`: the AC50 under setting [2] is 20 µM [rising, single point]. For `CC1(C)CC(C)(c2ccc(O)cc2O)N(c2ccc3ccccc3c2)C(=S)N1` (stereo not given), the AC50 under setting [1] is 1.12 µM [rising, partial curve, poor fit]. In the case of `Cc1oc(-c2ccccc2Cl)nc1CS(=O)CC(=O)N1CCN(c2cccc(C(F)(F)F)c2)CC1` (stereo not given), the AC50 under setting [2] was 17.8 µM [falling, partial curve] and the AC50 under setting [1] is 20 µM [falling, partial curve]. Consider `Cc1noc(C)c1COc1ccc(C(=O)OCC(=O)Nc2c(C)n(C)n(-c3ccccc3)c2=O)cc1`, for which, under setting [2], the AC50 is 35.5 µM [falling, single point].

As for `O=C(CNS(=O)(=O)c1ccc(F)cc1)N1CCN(c2ccc(F)cc2)CC1`, the AC50 under setting [1] was 28.2 µM [rising, single point].

For the molecule `CC(C)CCNC(=O)C(c1ccncc1)N(Cc1cccs1)C(=O)Cn1nnc(-c2ccc(F)cc2)n1` (stereo not given), the AC50 reads like this: under setting [2], 5.01 µM [falling, full curve]; under setting [1], 12.6 µM [rising, partial curve]. `O=C(Nc1cccc(F)c1)c1cc(S(=O)(=O)NCCC2=CCCCC2)ccc1F`: the AC50 under setting [1] is 22.4 µM [rising, partial curve, poor fit].

With `Cn1nnnc1SCCCNCc1cc(Br)ccc1OCc1ccccc1`, the AC50 under setting [2] was 35.5 µM [falling, partial curve, poor fit]. As to `COc1ccc(/C=C\C(=O)NCc2ccc3c(c2)cc(C)n3C)cc1OC`, the AC50 under setting [2] was 3.16 µM [rising, single point] and the AC50 under setting [1] was 3.55 µM [rising, single point]. Regarding `Cc1nn(Cc2ccccc2)c(C)c1NC(=O)c1ccc([N+](=O)[O-])cc1[N+](=O)[O-]`, the AC50 was 17.8 µM [rising, single point] under setting [2] and 35.5 µM [rising, single point] under setting [1].

Take `COc1cc2c(cc1OC)-c1cc(=Nc3c(C)cc(C)cc3C)n(C)c(=O)n1CC2`: the AC50 was 15.8 µM [falling, single point] under setting [2] and 15.8 µM [falling, single point] under setting [1]. `Fc1cccc(CN2CCN(Cc3nc(CCc4ccccc4)no3)CC2)c1`: the AC50 under setting [2] is 15.8 µM [falling, single point]. On to `CCc1nc(C)cn1S(=O)(=O)c1cc(OC)c(C)cc1C`, for which the AC50 under setting [1] is 17.8 µM [rising, single point]. Take `CCc1cc(C(=O)NNC(=S)NCc2ccccc2)cs1`: the AC50 is 12.6 µM [rising, partial curve, poor fit] under setting [2] and 17.8 µM [rising, single point] under setting [1]. As to `COc1ccc(N2CCN(C(c3ccccc3)c3nnnn3Cc3ccc(F)cc3)CC2)cc1` (stereo not given), the AC50 under setting [1] was 15.8 µM [rising, single point].

With `COC(=O)CCC(=O)Oc1ccc(OC(=O)CCC(=O)OC)cc1`, the AC50 is, setting by setting: under setting [2], 12.6 µM [rising, partial curve, poor fit]; under setting [1], 20 µM [rising, single point]. Regarding `C/C(=N\NS(=O)(=O)c1ccccc1)c1cc(Cl)cc(Cl)c1O`, the AC50 under setting [2] was 35.5 µM [falling, single point] and the AC50 under setting [1] was 35.5 µM [falling, partial curve, poor fit]. Regarding `Fc1ccc(C(OCCCc2cnc[nH]2)c2ccc(F)cc2)cc1`, the AC50 under setting [2] was 11.2 µM [falling, partial curve, poor fit]. For the molecule `CCCCN(C)CC(O)Cn1cc(/C=C/C(=O)c2cccs2)c2ccccc21` (stereo not given), the AC50 under setting [2] was 1.26 µM [rising, single point] and the AC50 under setting [1] is 11.2 µM [rising, partial curve].

In the case of `Cc1[nH]c2ccccc2c1SCC(=O)N1CCN(c2ccccc2)CC1`, under setting [1], the concentration at half-maximal activity (AC50) was 7.08 µM [rising, full curve].

In the case of `O=C(Nc1ccccc1)c1cccc(S(=O)(=O)Nc2ccccn2)c1`, the AC50 reads like this: under setting [2], 12.6 µM [rising, partial curve]; under setting [1], 35.5 µM [rising, single point]. In the case of `C/C(Cn1nnc([N+](=O)[O-])n1)=N\NC(=O)c1ccccc1Cl`, under setting [2], the concentration at half-maximal activity (AC50) is 12.6 µM [falling, partial curve, poor fit].

Turning to `O=C(c1ccncc1)c1ccc(N2CCN(C3CC(=O)N(Cc4ccccc4)C3=O)CC2)cc1` (stereo not given), the half-maximal activity concentration (AC50) under setting [1] is 14.1 µM [rising, single point]. With `CCNC(=O)N1CCN(CCCC(c2ccc(F)cc2)c2ccc(F)cc2)CC1`, the AC50 under setting [1] is 0.000891 µM [falling, full curve, poor fit]. For `NC(=O)c1ccc(-c2ccc(Br)cc2)o1`, the AC50 is 3.55 µM [falling, full curve, poor fit] under setting [2] and 3.98 µM [falling, full curve] under setting [1]. As for `CCOC(=O)N1CCC(Nc2ccc(N3C(=O)C4CCCCC4C3=O)cc2[N+](=O)[O-])CC1` (stereo not given), the AC50 under setting [1] is 0.501 µM [rising, full curve, poor fit]. The same measure, in the same setting: the result for `O=C1c2ccccc2C(=O)N1CCCc1c[nH]c2ccc(Cl)cc12` reads 1.41 µM [rising, partial curve]. Turning to `O=C(N/C(=C\c1ccccc1)C(=O)N1CCCCCC1)c1ccccc1`, the AC50 under setting [2] is 0.0112 µM [rising, full curve, poor fit].
